This is an account of results in the supplement of paper PMC11006884.

Chains of the proteins cited; added tags and fusions are not shown. Lines headed by an entry give the natural chain unless they say otherwise; changes in a name come on top.
UniProt Q96RQ3: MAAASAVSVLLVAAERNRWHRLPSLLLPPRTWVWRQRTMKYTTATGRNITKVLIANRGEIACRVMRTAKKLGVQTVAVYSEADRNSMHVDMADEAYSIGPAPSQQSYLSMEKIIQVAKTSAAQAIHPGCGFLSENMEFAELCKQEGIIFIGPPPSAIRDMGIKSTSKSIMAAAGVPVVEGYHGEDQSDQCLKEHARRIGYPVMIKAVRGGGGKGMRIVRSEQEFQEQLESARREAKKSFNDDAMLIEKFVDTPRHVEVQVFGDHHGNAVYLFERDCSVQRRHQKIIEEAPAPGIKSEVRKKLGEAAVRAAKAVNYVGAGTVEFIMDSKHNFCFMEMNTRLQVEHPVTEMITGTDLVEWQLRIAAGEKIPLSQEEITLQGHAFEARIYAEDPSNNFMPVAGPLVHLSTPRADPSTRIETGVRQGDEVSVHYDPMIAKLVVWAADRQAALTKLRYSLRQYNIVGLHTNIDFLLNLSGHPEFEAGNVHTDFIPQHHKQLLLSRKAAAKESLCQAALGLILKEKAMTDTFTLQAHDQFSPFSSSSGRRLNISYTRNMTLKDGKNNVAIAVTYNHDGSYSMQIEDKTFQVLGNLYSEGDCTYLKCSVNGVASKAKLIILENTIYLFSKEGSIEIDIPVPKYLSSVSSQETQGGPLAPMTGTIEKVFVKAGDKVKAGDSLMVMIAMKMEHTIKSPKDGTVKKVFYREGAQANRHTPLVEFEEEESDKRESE
UniProt Q96RS6: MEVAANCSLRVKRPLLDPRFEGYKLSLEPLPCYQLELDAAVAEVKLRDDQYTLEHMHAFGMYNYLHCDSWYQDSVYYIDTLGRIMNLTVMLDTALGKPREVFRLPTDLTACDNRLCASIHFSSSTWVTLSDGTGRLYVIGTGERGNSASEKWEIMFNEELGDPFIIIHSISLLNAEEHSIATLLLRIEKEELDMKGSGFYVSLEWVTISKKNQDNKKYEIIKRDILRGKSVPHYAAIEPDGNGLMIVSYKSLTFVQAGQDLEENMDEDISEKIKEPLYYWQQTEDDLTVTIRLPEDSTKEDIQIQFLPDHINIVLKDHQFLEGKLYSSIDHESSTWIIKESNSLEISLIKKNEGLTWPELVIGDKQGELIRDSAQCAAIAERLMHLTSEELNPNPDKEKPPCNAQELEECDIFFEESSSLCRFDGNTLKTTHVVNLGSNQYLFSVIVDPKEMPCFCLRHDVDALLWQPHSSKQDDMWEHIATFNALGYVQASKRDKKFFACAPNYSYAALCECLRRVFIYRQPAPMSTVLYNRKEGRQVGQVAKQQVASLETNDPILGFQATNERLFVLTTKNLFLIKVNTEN
UniProt Q9BQ67, whole entry, looked up: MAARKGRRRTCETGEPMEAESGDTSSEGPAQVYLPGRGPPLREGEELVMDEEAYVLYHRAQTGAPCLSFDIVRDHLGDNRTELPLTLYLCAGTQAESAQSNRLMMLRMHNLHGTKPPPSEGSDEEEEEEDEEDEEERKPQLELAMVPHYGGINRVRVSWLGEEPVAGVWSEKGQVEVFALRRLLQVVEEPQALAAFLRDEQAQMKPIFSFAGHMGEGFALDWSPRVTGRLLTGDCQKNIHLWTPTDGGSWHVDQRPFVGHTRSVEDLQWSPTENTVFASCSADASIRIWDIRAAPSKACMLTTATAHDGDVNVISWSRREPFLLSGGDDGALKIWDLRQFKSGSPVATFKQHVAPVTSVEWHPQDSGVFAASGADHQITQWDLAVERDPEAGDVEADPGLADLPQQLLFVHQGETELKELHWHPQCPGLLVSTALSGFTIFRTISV
UniProt Q96RE7: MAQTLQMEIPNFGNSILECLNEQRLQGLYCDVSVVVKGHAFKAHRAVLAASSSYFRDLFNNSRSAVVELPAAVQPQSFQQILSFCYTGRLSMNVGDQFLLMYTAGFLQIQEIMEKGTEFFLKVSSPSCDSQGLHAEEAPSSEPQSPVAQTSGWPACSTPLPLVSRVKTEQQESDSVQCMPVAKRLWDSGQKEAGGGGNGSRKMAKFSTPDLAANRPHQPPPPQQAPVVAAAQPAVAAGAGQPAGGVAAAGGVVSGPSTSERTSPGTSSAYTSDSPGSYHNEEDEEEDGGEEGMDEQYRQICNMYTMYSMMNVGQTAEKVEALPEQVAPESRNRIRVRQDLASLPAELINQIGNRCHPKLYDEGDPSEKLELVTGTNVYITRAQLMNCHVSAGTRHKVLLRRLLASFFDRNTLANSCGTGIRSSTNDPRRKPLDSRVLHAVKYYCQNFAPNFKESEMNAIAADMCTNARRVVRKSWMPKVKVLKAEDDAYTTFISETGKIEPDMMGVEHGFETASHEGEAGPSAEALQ
UniProt Q99832: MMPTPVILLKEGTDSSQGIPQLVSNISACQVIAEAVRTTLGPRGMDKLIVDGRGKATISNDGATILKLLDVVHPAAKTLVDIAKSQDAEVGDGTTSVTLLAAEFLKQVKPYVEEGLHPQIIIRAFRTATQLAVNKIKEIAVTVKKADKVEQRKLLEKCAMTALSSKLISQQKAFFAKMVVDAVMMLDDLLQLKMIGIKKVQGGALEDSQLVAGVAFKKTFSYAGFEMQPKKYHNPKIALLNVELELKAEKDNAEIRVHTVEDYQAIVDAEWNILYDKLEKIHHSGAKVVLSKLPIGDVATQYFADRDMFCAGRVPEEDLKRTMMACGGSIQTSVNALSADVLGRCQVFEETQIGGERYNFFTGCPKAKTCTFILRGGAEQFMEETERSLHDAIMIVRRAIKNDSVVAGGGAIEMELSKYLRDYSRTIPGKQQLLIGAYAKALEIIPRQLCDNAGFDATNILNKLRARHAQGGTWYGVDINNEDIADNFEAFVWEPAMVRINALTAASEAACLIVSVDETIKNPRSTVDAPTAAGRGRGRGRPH
UniProt Q99436: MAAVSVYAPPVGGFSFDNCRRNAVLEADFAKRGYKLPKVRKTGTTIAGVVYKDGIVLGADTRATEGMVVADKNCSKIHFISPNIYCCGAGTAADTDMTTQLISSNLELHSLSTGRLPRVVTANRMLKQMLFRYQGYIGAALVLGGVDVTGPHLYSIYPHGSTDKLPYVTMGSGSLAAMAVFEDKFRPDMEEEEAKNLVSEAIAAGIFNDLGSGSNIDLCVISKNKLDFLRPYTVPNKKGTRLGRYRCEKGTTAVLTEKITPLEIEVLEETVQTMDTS
UniProt Q9BQ52: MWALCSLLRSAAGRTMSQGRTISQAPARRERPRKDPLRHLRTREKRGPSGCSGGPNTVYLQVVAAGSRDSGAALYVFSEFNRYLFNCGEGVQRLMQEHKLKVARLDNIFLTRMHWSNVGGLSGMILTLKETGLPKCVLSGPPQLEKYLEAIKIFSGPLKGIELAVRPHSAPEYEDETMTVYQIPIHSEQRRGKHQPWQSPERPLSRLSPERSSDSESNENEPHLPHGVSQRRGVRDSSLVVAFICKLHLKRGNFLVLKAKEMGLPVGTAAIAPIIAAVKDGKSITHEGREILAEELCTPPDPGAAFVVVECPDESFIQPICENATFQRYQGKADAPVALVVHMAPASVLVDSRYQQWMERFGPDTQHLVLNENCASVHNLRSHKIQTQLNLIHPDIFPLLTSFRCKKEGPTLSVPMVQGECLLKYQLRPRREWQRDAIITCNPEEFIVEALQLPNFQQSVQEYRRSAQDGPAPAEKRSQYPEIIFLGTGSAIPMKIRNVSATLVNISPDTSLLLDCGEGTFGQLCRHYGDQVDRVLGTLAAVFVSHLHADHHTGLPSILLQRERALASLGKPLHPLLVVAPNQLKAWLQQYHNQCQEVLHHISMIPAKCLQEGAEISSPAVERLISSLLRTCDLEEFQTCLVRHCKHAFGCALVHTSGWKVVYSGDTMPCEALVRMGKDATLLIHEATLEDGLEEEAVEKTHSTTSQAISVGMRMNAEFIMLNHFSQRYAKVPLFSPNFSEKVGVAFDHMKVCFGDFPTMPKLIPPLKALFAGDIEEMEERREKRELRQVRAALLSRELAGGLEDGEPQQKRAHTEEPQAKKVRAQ
UniProt Q99757: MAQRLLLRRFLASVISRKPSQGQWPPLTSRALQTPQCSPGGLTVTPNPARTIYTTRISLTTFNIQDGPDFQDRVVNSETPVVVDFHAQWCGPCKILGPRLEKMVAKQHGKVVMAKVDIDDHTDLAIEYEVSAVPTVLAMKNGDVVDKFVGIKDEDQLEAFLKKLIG
UniProt Q9BQ69: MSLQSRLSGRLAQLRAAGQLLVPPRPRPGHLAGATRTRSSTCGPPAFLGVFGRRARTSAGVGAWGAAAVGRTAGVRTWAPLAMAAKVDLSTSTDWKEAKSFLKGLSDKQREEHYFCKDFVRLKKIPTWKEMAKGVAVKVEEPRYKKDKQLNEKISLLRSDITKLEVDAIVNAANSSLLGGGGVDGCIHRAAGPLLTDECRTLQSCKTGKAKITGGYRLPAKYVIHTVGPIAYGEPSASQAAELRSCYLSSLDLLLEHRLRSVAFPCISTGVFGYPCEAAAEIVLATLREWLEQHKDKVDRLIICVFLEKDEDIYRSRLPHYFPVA
UniProt Q9BQE3, whole entry, looked up: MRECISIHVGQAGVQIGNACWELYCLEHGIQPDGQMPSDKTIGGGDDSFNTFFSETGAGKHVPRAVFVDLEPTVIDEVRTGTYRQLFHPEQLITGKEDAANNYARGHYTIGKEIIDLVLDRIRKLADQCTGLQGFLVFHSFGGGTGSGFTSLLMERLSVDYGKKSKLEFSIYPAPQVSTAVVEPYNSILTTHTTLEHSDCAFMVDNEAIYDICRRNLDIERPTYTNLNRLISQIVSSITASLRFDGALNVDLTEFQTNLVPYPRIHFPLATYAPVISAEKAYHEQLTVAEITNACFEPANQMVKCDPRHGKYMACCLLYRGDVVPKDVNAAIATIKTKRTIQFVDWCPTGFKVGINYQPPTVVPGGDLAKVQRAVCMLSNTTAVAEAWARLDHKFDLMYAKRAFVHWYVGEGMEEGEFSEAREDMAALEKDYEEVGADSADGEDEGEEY
UniProt Q9BPX6: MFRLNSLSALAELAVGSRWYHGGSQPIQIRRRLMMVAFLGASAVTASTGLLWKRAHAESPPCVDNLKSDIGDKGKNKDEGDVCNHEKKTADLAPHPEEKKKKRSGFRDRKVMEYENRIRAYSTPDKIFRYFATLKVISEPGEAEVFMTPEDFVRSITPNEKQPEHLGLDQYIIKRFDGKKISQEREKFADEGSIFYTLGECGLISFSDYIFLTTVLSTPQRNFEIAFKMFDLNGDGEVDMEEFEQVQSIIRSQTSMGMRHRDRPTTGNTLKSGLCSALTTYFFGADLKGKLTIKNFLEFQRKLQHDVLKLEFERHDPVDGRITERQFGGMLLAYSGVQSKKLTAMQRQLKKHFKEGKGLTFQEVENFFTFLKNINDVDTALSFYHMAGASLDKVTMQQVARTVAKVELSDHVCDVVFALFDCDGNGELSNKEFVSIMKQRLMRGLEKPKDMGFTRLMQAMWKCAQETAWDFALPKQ
UniProt Q96T37: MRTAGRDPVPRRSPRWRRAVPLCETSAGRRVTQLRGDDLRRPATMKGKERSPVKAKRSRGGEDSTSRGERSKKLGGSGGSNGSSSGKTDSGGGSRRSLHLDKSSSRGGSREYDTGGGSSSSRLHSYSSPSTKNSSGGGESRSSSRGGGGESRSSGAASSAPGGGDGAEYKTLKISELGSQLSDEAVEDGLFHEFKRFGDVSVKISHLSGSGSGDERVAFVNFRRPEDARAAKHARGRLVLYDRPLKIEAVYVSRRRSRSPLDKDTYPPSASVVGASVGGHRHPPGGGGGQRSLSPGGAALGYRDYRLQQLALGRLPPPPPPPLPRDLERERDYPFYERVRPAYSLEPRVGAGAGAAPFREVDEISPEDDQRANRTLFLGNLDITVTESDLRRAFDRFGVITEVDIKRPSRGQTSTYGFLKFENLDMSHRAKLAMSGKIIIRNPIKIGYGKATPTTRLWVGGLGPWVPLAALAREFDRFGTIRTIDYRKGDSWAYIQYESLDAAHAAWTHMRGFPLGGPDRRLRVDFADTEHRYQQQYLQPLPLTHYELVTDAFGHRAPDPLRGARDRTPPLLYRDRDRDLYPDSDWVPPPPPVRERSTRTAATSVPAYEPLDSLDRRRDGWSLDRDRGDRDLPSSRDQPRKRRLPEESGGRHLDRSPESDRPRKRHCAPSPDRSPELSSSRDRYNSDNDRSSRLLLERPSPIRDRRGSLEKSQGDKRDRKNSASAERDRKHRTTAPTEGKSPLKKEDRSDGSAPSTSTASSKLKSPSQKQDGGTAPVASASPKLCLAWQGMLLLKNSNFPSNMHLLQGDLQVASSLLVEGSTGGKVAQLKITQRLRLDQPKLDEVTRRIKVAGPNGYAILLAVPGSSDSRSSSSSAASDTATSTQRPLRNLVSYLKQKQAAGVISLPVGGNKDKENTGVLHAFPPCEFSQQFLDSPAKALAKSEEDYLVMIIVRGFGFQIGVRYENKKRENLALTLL
UniProt Q96S90: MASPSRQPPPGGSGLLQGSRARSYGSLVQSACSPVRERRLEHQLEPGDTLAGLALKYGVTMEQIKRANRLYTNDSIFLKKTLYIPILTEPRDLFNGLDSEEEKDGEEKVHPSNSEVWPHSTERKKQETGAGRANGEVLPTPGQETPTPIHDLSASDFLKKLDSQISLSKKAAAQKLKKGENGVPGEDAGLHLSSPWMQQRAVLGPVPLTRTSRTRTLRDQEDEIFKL

This is a selection; strong and weak results do not stand in their true shares.

Compound in this assay: COC(=O)C#Cc1ccccc1 [methyl 3-phenylpropiolate]
Nature of the assay: log2 ratio of iodoacetamide-alkyne labeling of the cysteine site, DMSO over compound (competition); higher = stronger covalent engagement of the cysteine by the compound, active = 1 or more. The following applies: 500 µM; treatment time 1 h; system: HEK293T cell lysate. The gist of the method: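 After 1 h at ambient temperature with vehicle or electrophile (500 µM), HEK293T lysate (2 mg/mL) was labelled for 1 h with iodoacetamide alkyne and clicked to sCIP-TMT reagents. Pooled samples were trypsin-digested overnight at 37 °C, streptavidin-enriched, acid-eluted and analysed by Orbitrap Eclipse LC-MS/MS with FAIMS, then quantified in FragPipe over three replicates with duplicate channels. A cysteine's log2 competition ratio is its mean control-channel over mean compound-channel reporter intensity. Cysteines quantified in only one replicate were not included.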
As to MCCC1 C509 (UniProt Q96RQ3), the “log2 ratio of iodoacetamide-alkyne labeling” value (from here on “log2 ratio”) is inactive: 0.00784.

On to RUFY1 C603 (UniProt Q96T51), for which the “log2 ratio” value was inactive: 0.209.

MYBBP1A C678 (UniProt Q9BQG0): the “log2 ratio” value is inactive: -0.109.

As to FUBP3 C125 (UniProt Q96I24), the “log2 ratio” value was inactive: 0.341.

Take NUDCD1 C32 (UniProt Q96RS6): the “log2 ratio” value is inactive: 0.565.

As for SCYL1 C241 (UniProt Q96KG9), the “log2 ratio” value was inactive: 0.11.

As for ACO2 C385 (UniProt Q99798), the “log2 ratio” value is active: 1.66.

In the case of PSMD1 C806 (UniProt Q99460), the “log2 ratio” value is inactive: 0.413.

Regarding GRWD1 C11 (UniProt Q9BQ67), the “log2 ratio” value was inactive: 0.413.

NACC1 C416 (UniProt Q96RE7): the “log2 ratio” value was inactive: 0.13.

For DDX50 C242 (UniProt Q9BQ39), the “log2 ratio” value was inactive: 0.0336.

Take POP1 C745 (UniProt Q99575): the “log2 ratio” value was inactive: 0.439.

For CCT7 C326 (UniProt Q99832), the “log2 ratio” value was inactive: 0.059.

Turning to POP1 C705 (UniProt Q99575), the “log2 ratio” value is inactive: 0.307.

With CDC5L C96 (UniProt Q99459), the “log2 ratio” value is inactive: -0.0212.

Turning to PSMB7 C74 (UniProt Q99436), the “log2 ratio” value was inactive: 0.177.

Regarding ELAC2 C609 (UniProt Q9BQ52), the “log2 ratio” value is inactive: 0.26.

For the target TXN2 C90 (UniProt Q99757), the “log2 ratio” value is inactive: 0.721.

With RSF1 C944 (UniProt Q96T23), the “log2 ratio” value was inactive: 0.231.

As for MACROD1 C186 (UniProt Q9BQ69), the “log2 ratio” value was inactive: 0.109.

In the case of MMS19 C599 (UniProt Q96T76), the “log2 ratio” value is inactive: 0.154.

As to CCT7 C345 (UniProt Q99832), the “log2 ratio” value was inactive: 0.0372.

Take TUBA1C C295 (UniProt Q9BQE3): the “log2 ratio” value is inactive: 0.453.

For the target PASK C15 (UniProt Q96RG2), the “log2 ratio” value is inactive: 0.404.

For TMEM209 C367 (UniProt Q96SK2), the “log2 ratio” value was inactive: 0.176.

For ZFR C5 (UniProt Q96KR1), the “log2 ratio” value is inactive: 0.575.

For the target UniProt Q9BPX6_C83, the “log2 ratio” value was inactive: 0.582.

For the target NEK1 C276 (UniProt Q96PY6), the “log2 ratio” value is inactive: 0.241.

For the target ACO2 C451 (UniProt Q99798), the “log2 ratio” value is inactive: 0.28.

In the case of VCPIP1 C160 (UniProt Q96JH7), the “log2 ratio” value was inactive: -0.23.

Turning to RBM15 C926 (UniProt Q96T37), the “log2 ratio” value was inactive: 0.375.

With WDR24 C587 (UniProt Q96S15), the “log2 ratio” value is inactive: -0.237.

With RNF2 C179 (UniProt Q99496), the “log2 ratio” value is inactive: 0.263.

As for LYSMD1 C32 (UniProt Q96S90), the “log2 ratio” value is inactive: 0.424.

For the target DDX50 C603 (UniProt Q9BQ39), the “log2 ratio” value is inactive: 0.552.

In the case of MMS19 C549 (UniProt Q96T76), the “log2 ratio” value was active: 1.36.

Take DOK1 C308 (UniProt Q99704): the “log2 ratio” value is inactive: 0.495.
